According to the supplement of paper PMC10032668:
This is one part of the list. The list holds hits alone, and they repeat only in part.

Chains of the proteins cited; added tags and fusions are not shown.
EIF1, P41567, UniProt P41567, whole entry: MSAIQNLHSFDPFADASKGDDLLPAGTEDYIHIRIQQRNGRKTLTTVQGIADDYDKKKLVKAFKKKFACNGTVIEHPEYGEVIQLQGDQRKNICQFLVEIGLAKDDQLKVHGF
PARK7, Q99497, UniProt Q99497, whole entry: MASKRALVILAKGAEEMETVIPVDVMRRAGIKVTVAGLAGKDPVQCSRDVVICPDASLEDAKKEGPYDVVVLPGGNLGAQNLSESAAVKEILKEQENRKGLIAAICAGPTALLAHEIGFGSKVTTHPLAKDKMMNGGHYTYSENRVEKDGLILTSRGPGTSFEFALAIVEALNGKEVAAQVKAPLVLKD
PCBP2, Q15366, UniProt Q15366, whole entry: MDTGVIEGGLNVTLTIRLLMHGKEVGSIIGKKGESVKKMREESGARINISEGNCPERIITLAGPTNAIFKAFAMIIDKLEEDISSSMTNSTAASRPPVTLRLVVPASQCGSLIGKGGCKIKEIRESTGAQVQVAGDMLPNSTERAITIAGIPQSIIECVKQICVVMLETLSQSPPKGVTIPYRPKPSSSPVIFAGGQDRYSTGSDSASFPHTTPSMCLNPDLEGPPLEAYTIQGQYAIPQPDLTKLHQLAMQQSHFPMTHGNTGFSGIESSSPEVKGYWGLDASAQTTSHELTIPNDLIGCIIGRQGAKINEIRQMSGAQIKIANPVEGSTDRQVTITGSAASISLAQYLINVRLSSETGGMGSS
INTS12, Q96CB8, UniProt Q96CB8, whole entry: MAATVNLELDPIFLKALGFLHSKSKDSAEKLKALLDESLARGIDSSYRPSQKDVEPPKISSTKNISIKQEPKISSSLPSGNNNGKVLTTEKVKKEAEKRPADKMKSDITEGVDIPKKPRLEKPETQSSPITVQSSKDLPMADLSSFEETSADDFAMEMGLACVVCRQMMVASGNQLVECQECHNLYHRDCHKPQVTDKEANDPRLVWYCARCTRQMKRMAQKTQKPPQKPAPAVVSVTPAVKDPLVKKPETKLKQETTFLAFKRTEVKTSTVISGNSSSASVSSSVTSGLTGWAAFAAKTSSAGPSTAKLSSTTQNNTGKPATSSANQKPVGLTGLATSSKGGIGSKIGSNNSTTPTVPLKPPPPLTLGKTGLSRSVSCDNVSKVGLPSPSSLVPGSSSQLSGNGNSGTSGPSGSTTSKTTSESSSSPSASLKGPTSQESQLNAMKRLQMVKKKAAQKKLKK
NMNAT1, Q9HAN9, UniProt Q9HAN9, whole entry: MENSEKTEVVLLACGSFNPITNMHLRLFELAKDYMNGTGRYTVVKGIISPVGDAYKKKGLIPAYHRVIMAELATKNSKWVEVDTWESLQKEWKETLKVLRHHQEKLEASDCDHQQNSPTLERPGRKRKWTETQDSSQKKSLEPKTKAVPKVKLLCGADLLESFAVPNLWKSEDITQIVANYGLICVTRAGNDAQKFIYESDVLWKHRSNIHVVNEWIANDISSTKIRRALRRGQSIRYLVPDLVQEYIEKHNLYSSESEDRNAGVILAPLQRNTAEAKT
TPM3, P06753, UniProt P06753, whole entry: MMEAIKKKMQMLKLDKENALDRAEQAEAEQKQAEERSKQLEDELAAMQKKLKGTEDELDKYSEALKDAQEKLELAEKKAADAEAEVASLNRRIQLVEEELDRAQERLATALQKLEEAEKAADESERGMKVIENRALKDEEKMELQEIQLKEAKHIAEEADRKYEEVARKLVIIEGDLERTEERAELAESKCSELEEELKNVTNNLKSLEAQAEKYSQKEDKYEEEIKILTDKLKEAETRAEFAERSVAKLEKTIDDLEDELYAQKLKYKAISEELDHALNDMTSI
TPR, P12270, UniProt P12270, whole entry: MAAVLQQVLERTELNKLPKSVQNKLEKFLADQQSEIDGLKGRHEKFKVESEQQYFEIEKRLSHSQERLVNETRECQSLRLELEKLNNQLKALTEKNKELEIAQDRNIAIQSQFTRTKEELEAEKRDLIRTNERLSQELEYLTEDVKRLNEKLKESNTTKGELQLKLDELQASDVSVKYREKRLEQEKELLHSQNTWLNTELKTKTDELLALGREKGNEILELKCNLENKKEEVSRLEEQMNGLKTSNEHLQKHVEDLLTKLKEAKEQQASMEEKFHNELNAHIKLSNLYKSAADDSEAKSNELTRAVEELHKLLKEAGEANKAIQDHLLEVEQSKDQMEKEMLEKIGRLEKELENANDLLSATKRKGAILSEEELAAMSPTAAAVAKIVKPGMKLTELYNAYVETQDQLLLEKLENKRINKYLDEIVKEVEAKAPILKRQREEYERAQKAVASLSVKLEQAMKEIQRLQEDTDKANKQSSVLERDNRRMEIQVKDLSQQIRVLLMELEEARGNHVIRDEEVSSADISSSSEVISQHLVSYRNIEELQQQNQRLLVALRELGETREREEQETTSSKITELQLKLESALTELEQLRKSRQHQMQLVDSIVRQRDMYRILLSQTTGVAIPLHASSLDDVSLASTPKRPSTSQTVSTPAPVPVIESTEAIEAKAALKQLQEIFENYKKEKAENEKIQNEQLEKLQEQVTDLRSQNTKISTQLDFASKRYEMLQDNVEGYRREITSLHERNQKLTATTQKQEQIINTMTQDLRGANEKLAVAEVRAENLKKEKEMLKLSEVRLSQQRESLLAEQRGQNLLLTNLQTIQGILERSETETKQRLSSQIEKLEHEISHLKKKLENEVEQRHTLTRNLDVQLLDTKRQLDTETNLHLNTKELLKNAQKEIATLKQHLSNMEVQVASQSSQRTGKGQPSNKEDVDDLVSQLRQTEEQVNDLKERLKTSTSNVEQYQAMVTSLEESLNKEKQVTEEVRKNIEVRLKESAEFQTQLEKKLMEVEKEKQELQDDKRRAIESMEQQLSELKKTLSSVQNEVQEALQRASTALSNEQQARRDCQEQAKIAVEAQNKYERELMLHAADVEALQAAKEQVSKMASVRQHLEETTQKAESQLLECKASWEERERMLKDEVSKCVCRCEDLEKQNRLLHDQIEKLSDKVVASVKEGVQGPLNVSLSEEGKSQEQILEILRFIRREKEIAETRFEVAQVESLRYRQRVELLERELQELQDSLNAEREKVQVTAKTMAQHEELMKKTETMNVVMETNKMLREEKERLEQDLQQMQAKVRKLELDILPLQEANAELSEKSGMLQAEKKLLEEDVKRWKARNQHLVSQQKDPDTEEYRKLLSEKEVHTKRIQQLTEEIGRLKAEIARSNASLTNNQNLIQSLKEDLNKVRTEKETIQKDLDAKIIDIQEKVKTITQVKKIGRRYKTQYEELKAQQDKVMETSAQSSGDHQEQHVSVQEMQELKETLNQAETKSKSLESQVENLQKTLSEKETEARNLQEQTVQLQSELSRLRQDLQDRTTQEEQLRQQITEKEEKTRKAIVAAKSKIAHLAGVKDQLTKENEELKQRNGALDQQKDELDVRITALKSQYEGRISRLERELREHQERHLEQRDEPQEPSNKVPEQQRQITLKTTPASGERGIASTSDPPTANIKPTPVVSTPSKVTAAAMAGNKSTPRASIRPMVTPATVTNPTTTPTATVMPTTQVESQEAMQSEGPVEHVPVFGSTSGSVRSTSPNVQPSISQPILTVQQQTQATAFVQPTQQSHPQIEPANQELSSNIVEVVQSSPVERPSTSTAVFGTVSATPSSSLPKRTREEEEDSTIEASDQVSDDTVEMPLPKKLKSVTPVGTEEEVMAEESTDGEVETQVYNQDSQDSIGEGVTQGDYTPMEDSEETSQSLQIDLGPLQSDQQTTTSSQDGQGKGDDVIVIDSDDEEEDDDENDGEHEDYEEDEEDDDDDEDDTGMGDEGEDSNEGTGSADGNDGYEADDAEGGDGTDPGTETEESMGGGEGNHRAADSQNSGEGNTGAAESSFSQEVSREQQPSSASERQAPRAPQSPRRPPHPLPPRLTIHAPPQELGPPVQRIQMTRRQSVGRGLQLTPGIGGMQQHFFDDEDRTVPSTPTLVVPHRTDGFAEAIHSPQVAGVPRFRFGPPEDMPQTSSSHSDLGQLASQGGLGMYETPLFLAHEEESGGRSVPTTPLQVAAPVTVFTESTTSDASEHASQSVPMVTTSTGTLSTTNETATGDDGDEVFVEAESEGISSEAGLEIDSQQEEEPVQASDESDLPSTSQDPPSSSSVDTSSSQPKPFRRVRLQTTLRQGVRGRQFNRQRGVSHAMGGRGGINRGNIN
YBX3, P16989, UniProt P16989, whole entry: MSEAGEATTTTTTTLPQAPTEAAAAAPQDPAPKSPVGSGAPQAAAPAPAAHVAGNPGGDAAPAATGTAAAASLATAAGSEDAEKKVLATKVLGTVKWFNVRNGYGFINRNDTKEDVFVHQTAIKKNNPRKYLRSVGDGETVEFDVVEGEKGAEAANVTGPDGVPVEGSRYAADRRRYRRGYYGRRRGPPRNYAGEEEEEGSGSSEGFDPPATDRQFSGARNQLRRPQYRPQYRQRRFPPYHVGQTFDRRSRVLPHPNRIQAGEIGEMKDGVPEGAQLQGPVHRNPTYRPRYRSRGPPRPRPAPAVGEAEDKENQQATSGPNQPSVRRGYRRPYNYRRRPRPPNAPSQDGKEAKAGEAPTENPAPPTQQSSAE
RFC3, P40938, UniProt P40938, whole entry: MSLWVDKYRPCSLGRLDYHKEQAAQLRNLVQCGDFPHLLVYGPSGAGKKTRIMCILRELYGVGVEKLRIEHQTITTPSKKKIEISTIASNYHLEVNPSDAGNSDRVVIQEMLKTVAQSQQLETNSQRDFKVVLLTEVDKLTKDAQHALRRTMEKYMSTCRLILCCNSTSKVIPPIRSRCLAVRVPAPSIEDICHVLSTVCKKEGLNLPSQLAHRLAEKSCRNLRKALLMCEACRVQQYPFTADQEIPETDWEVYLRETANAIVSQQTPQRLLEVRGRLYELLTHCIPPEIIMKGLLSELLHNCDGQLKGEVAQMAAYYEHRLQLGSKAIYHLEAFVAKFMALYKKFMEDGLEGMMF
HIST1H1E, P10412, UniProt P10412, whole entry: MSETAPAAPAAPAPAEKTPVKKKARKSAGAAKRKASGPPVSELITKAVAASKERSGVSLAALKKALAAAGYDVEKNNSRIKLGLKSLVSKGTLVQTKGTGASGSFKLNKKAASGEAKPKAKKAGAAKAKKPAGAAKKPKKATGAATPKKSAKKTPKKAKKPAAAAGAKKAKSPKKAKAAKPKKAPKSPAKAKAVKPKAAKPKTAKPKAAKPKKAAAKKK
RBBP5, Q15291, UniProt Q15291, whole entry: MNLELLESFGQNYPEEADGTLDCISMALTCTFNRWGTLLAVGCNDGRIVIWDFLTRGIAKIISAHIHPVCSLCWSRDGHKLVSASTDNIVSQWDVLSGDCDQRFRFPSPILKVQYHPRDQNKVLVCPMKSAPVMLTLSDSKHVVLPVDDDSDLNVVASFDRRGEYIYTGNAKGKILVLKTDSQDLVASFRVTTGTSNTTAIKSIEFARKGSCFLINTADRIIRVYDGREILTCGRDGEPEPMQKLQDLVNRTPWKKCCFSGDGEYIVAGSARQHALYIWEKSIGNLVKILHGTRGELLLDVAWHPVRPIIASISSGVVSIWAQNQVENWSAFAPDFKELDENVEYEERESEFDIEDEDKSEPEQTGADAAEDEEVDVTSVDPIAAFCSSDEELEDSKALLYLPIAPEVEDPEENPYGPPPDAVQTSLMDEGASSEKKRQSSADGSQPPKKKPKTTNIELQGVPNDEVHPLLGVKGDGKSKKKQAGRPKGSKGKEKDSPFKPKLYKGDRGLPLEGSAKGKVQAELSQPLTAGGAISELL

Columns and labels:
Assay in all cases: PRISMA enrichment of interactor (LFQ) in peptide spot vs all other peptide spots (log2 fold change); higher = stronger / more specific binding of the interactor to the peptide
ELP1, O95163 = molecular target: ELP1, O95163
Description: (§1)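 PRISMA: 15-aa overlapping tiles (offset 8 aa) of 60 microproteins, plus SOS1/GLUT1 control peptides, were spot-synthesized on cellulose membranes in triplicate. Membranes were incubated with benzonase-treated HEK293T lysate, and bound proteins were identified by LC-MS/MS with LFQ. Enrichment is the log2 fold change of each protein in one spot versus all other spots. Only interactors passing the significance cutoff are listed.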

IPO4, Q8TEX9 = molecular target: IPO4, Q8TEX9
Description: as §1

MLEC, Q14165 = molecular target: MLEC, Q14165
Description: as §1

MMS19, Q96T76 = molecular target: MMS19, Q96T76
Description: as §1

MRPL44, Q9H9J2 = molecular target: MRPL44, Q9H9J2
Description: as §1

TMX1, Q9H3N1 = molecular target: TMX1, Q9H3N1
Description: as §1

UBR5, O95071 = molecular target: UBR5, O95071
Description: as §1

YTHDC1, Q96MU7 = molecular target: YTHDC1, Q96MU7
Description: as §1

EIF2AK2, P19525 = molecular target: EIF2AK2, P19525
Description: as §1

RAVER1, Q8IY67 = molecular target: RAVER1, Q8IY67
Description: as §1

TMEM11, P17152 = molecular target: TMEM11, P17152
Description: as §1

EIF1, P41567 = molecular target: EIF1, P41567
Description: as §1

EIF4H, Q15056 = molecular target: EIF4H, Q15056
Description: as §1

LSM12, Q3MHD2 = molecular target: LSM12, Q3MHD2
Description: as §1

PARK7, Q99497 = molecular target: PARK7, Q99497
Description: as §1

PCBP2, Q15366 = molecular target: PCBP2, Q15366
Description: as §1

FYTTD1, Q96QD9 = molecular target: FYTTD1, Q96QD9
Description: as §1

INTS12, Q96CB8 = molecular target: INTS12, Q96CB8
Description: as §1

NMNAT1, Q9HAN9 = molecular target: NMNAT1, Q9HAN9
Description: as §1

OXSR1, O95747 = molecular target: OXSR1, O95747
Description: as §1

PDXDC1, Q6P996 = molecular target: PDXDC1, Q6P996
Description: as §1

PPP6R1, Q9UPN7 = molecular target: PPP6R1, Q9UPN7
Description: as §1

RSL1D1, O76021 = molecular target: RSL1D1, O76021
Description: as §1

TPM3, P06753 = molecular target: TPM3, P06753
Description: as §1

TPR, P12270 = molecular target: TPR, P12270
Description: as §1

UBTF, P17480 = molecular target: UBTF, P17480
Description: as §1

YBX3, P16989 = molecular target: YBX3, P16989
Description: as §1

ZNF622, Q969S3 = molecular target: ZNF622, Q969S3
Description: as §1

HSPH1, Q92598 = molecular target: HSPH1, Q92598
Description: as §1

FAR1, Q8WVX9 = molecular target: FAR1, Q8WVX9
Description: as §1

RBM6, P78332 = molecular target: RBM6, P78332
Description: as §1

RFC3, P40938 = molecular target: RFC3, P40938
Description: as §1

RTRAF, Q9Y224 = molecular target: RTRAF, Q9Y224
Description: as §1

SPCS2, Q15005 = molecular target: SPCS2, Q15005
Description: as §1

TBRG4, Q969Z0 = molecular target: TBRG4, Q969Z0
Description: as §1

HIST1H1E, P10412 = molecular target: HIST1H1E, P10412
Description: as §1

MARCKS, P29966 = molecular target: MARCKS, P29966
Description: as §1

ODF2, Q5BJF6 = molecular target: ODF2, Q5BJF6
Description: as §1

RBBP5, Q15291 = molecular target: RBBP5, Q15291
Description: as §1

ST13, P50502 = molecular target: ST13, P50502
Description: as §1

TAF15, Q92804 = molecular target: TAF15, Q92804
Description: as §1

EIF2B2, P49770 = molecular target: EIF2B2, P49770
Description: as §1

UMPS, P11172 = molecular target: UMPS, P11172
Description: as §1

B1: PDZRN3-AS1 (peptide)
chain: VLCVHSVIFPLRKLR
PRISMA enrichment of interactor (log2) (ELP1, O95163): 8.89 | PRISMA enrichment of interactor (log2) (IPO4, Q8TEX9): 6.42 | PRISMA enrichment of interactor (log2) (MLEC, Q14165): 6.55 | PRISMA enrichment of interactor (log2) (MMS19, Q96T76): 5.15 | PRISMA enrichment of interactor (log2) (MRPL44, Q9H9J2): 4.92 | PRISMA enrichment of interactor (log2) (TMX1, Q9H3N1): 7.15 | PRISMA enrichment of interactor (log2) (UBR5, O95071): 6.97 | PRISMA enrichment of interactor (log2) (YTHDC1, Q96MU7): 6

B2: JHDM1D-AS1 (peptide)
chain: GLVERGIEKSRRAYK
PRISMA enrichment of interactor (log2) (EIF2AK2, P19525): 7.02 | PRISMA enrichment of interactor (log2) (RAVER1, Q8IY67): 4.68 | PRISMA enrichment of interactor (log2) (TMEM11, P17152): 5.06

B3: PDZRN3-AS1 (peptide)
chain: ALLQFWFVLCVHSVI
PRISMA enrichment of interactor (log2) (EIF1, P41567): 5 | PRISMA enrichment of interactor (log2) (EIF4H, Q15056): 4.55 | PRISMA enrichment of interactor (log2) (LSM12, Q3MHD2): 4.43 | PRISMA enrichment of interactor (log2) (PARK7, Q99497): 4.84 | PRISMA enrichment of interactor (log2) (PCBP2, Q15366): 4.15

B4: NDUFB3 (peptide)
chain: WKIEGTPLETIQKKL
PRISMA enrichment of interactor (log2) (FYTTD1, Q96QD9): 7.58 | PRISMA enrichment of interactor (log2) (INTS12, Q96CB8): 5.74 | PRISMA enrichment of interactor (log2) (NMNAT1, Q9HAN9): 4.77 | PRISMA enrichment of interactor (log2) (OXSR1, O95747): 4 | PRISMA enrichment of interactor (log2) (PDXDC1, Q6P996): 3.99 | PRISMA enrichment of interactor (log2) (PPP6R1, Q9UPN7): 3.85 | PRISMA enrichment of interactor (log2) (RSL1D1, O76021): 6.39 | PRISMA enrichment of interactor (log2) (TPM3, P06753): 5.39 | PRISMA enrichment of interactor (log2) (TPR, P12270): 5.22 | PRISMA enrichment of interactor (log2) (UBTF, P17480): 7.5 | PRISMA enrichment of interactor (log2) (YBX3, P16989): 4.54 | PRISMA enrichment of interactor (log2) (ZNF622, Q969S3): 4.47

B5: RP11-644F5.11 (peptide)
chain: MAGRLWRRSGEQKKG
PRISMA enrichment of interactor (log2) (HSPH1, Q92598): 4.77

B6: PARL (peptide)
chain: ARRGVRRWAAAAARS
PRISMA enrichment of interactor (log2) (FAR1, Q8WVX9): 5.38 | PRISMA enrichment of interactor (log2) (RBM6, P78332): 4.94 | PRISMA enrichment of interactor (log2) (RFC3, P40938): 6.24 | PRISMA enrichment of interactor (log2) (RTRAF, Q9Y224): 6.55 | PRISMA enrichment of interactor (log2) (SPCS2, Q15005): 5.54 | PRISMA enrichment of interactor (log2) (TBRG4, Q969Z0): 4.3

B7: RP11-464C19.3 (peptide)
chain: GSRRAFGAHGCRPEW
PRISMA enrichment of interactor (log2) (HIST1H1E, P10412): 6.44 | PRISMA enrichment of interactor (log2) (MARCKS, P29966): 6.71 | PRISMA enrichment of interactor (log2) (ODF2, Q5BJF6): 8.85 | PRISMA enrichment of interactor (log2) (RBBP5, Q15291): 4.49 | PRISMA enrichment of interactor (log2) (ST13, P50502): 5.62 | PRISMA enrichment of interactor (log2) (TAF15, Q92804): 5.06

B8: BANCR (peptide)
chain: LLVGSGLGPFSGNIFLVT
PRISMA enrichment of interactor (log2) (EIF2B2, P49770): 5.13 | PRISMA enrichment of interactor (log2) (UMPS, P11172): 4.67
